# Reference: the supplement of paper PMC3682954
# Values joined by “and” are separate entries in the source; they are usually repeats but may differ in a detail not shown here. Equal entries are not always repeated. Structures can show the parent of a compound that is named as a salt. ± gives the standard deviation of the averaged measurements. The list shows a part of the results. Many values rest on one well or one pass, so single values are uncertain.
# Tested on: RAW 264.7
# Assay: HMGB1-induced TNF-alpha production relative to HMGB1-stimulated control; higher = more TNF-alpha secretion (less inhibition)
# Conditions: stimulus: HMGB1 5 ug/ml, 18 h
# [1] = compound concentration: 1 ug/ml
structure (smiles),measurement,setting,value
CNCC[C@H](Oc1ccc(C(F)(F)F)cc1)c1ccccc1 [S-(+)-Fluoxetine hydrochloride],HMGB1-induced TNF-alpha production,compound concentration: 3 uM,87.2%
COc1cc(C(=O)N2CCOCC2)cc(OC)c1OC,HMGB1-induced TNF-alpha production,compound concentration: 3 uM,68.6%
CC(=O)OCC(=O)[C@@]1(O)CC[C@H]2[C@@H]3CCC4=CC(=O)CC[C@]4(C)[C@H]3C(=O)C[C@@]21C,HMGB1-induced TNF-alpha production,compound concentration: 3 uM,71.4%
CC(=O)OCC(=O)[C@@]1(O)CC[C@H]2[C@@H]3CCC4=CC(=O)CC[C@]4(C)[C@H]3C(=O)C[C@@]21C [cortisone 21-acetate],HMGB1-induced TNF-alpha production,[1],70.6%
CC(=O)OCC(=O)[C@@]1(O)CC[C@H]2[C@@H]3CCC4=CC(=O)CC[C@]4(C)[C@H]3C(=O)C[C@@]21C [Cortisone 21-acetate],HMGB1-induced TNF-alpha production,compound concentration: 3 uM,78.1%
CC(=O)OCC(=O)[C@@]1(O)CC[C@H]2[C@@H]3CCC4=CC(=O)C=C[C@]4(C)[C@@]3(F)[C@@H](O)C[C@@]21C [Isoflupredone acetate],HMGB1-induced TNF-alpha production,compound concentration: 3 uM,42.7%
O=C1c2ccccc2C(=O)c2c(NCCc3ccc(O)cc3)ccc(NCCc3ccc(O)cc3)c21,HMGB1-induced TNF-alpha production,compound concentration: 3 uM,90%
O=C1c2c(O)cc(O)cc2OC(c2ccc(O)c(O)c2)C1O (stereo not given),HMGB1-induced TNF-alpha production,[1],69.3%
O=C1c2c(O)cc(O)cc2O[C@H](c2ccc(O)c(O)c2)[C@H]1O,HMGB1-induced TNF-alpha production,compound concentration: 3 uM,107%
O=C1c2c(O)cc(O)cc2O[C@H](c2ccc(O)c(O)c2)[C@H]1O (racemic),HMGB1-induced TNF-alpha production,compound concentration: 3 uM,108%
CN(C)CCCOc1nn(Cc2ccccc2)c2ccccc12 [Benzydamine hydrochloride],HMGB1-induced TNF-alpha production,compound concentration: 3 uM,75.9%
CN(C)CCCOc1nn(Cc2ccccc2)c2ccccc12,HMGB1-induced TNF-alpha production,compound concentration: 3 uM,70.4%
CN(C)CCCOc1nn(Cc2ccccc2)c2ccccc12 [Benzydamine],HMGB1-induced TNF-alpha production,compound concentration: 3 uM,75.2%
Nc1ccc(S(=O)(=O)Nc2ccc(Cl)nn2)cc1 [Sulfachloropyridazine],HMGB1-induced TNF-alpha production,compound concentration: 3 uM,93.5%
Nc1ccc(S(=O)(=O)Nc2ccc(Cl)nn2)cc1,HMGB1-induced TNF-alpha production,compound concentration: 3 uM,74.8%
CC1CCN=C(N)S1 (racemic) [(±)-AMT hydrochloride],HMGB1-induced TNF-alpha production,compound concentration: 3 uM,93.3%
C[C@H]1C[C@H]2[C@@H]3CCC4=CC(=O)C=C[C@]4(C)[C@@]3(Cl)[C@@H](O)C[C@]2(C)[C@@]1(O)C(=O)CO [Beclomethasone],HMGB1-induced TNF-alpha production,compound concentration: 3 uM,50.4 ± 5.3%
Oc1ccc(O)cc1,HMGB1-induced TNF-alpha production,compound concentration: 3 uM,51.8%
Oc1ccc(O)cc1 [Hydroquinone],HMGB1-induced TNF-alpha production,compound concentration: 3 uM,51.3%
COc1cc2nc(N3CCN(C(=O)C4CCCO4)CC3)nc(N)c2cc1OC (stereo not given) [Terazosin],HMGB1-induced TNF-alpha production,compound concentration: 3 uM,94.8 ± 4.8%
COc1cc2nc(N3CCN(C(=O)C4CCCO4)CC3)nc(N)c2cc1OC (stereo not given) [Terazosin hydrochloride],HMGB1-induced TNF-alpha production,compound concentration: 3 uM,102 ± 16%
COc1cc2nc(N3CCN(C(=O)C4CCCO4)CC3)nc(N)c2cc1OC (stereo not given),HMGB1-induced TNF-alpha production,compound concentration: 3 uM,92.8%
CC1CCC(NC(=O)N(CCCl)N=O)CC1 (stereo not given),HMGB1-induced TNF-alpha production,compound concentration: 3 uM,85.5 ± 3.2%
Cc1nc(N=Nc2ccc(C(=O)O)cc2)c(COP(=O)(O)O)c(C=O)c1O,HMGB1-induced TNF-alpha production,compound concentration: 3 uM,109%
CNCCC=C1c2ccccc2CCc2ccccc21,HMGB1-induced TNF-alpha production,compound concentration: 3 uM,87.5%
CNCCC=C1c2ccccc2CCc2ccccc21 [Nortriptyline hydrochloride],HMGB1-induced TNF-alpha production,compound concentration: 3 uM,75.8 ± 17%
C[C@H]1[C@H](NC(=O)/C(=N\OC(C)(C)C(=O)O)c2csc(N)n2)C(=O)N1S(=O)(=O)O [Aztreonam],HMGB1-induced TNF-alpha production,compound concentration: 3 uM,92.1 ± 2.1%
C[C@H]1[C@H](NC(=O)/C(=N\OC(C)(C)C(=O)O)c2csc(N)n2)C(=O)N1S(=O)(=O)O,HMGB1-induced TNF-alpha production,compound concentration: 3 uM,85 ± 12%
CCc1c2c(nc3ccc(OC(=O)N4CCC(N5CCCCC5)CC4)cc13)-c1cc3c(c(=O)n1C2)COC(=O)[C@]3(O)CC [Irinotecan Hydrochloride],HMGB1-induced TNF-alpha production,compound concentration: 3 uM,96.7%
CCc1c2c(nc3ccc(OC(=O)N4CCC(N5CCCCC5)CC4)cc13)-c1cc3c(c(=O)n1C2)COC(=O)[C@]3(O)CC [IRINOTECAN HCl )trihydrate)],HMGB1-induced TNF-alpha production,compound concentration: 3 uM,97.8%
C=CCN1CCc2c(cc(O)c(O)c2Cl)C(c2ccccc2)C1 (racemic) [(±)-Chloro-APB hydrobromide],HMGB1-induced TNF-alpha production,compound concentration: 3 uM,105%
Cc1ccc(/C(=C\CN2CCCC2)c2ccccn2)cc1,HMGB1-induced TNF-alpha production,compound concentration: 3 uM,81.6%
Cc1ccc(/C(=C\CN2CCCC2)c2ccccn2)cc1 [Triprolidine hydrochloride],HMGB1-induced TNF-alpha production,compound concentration: 3 uM,88.9 ± 17%
C=C1/C(=C\C=C2/CCC[C@]3(C)[C@@H]([C@H](C)CCCC(C)(C)O)CC[C@@H]23)C[C@@H](O)C[C@@H]1O,HMGB1-induced TNF-alpha production,compound concentration: 3 uM,93%
C=C1/C(=C\C=C2/CCC[C@]3(C)[C@@H]([C@H](C)CCCC(C)(C)O)CC[C@@H]23)C[C@@H](O)C[C@@H]1O [Calcitriol],HMGB1-induced TNF-alpha production,compound concentration: 3 uM,81.1%
CC(C)(O/N=C(\C(=O)N[C@@H]1C(=O)N2C(C(=O)[O-])=C(C[n+]3ccccc3)CS[C@H]12)c1csc(N)n1)C(=O)O [Ceftazidime pentahydrate],HMGB1-induced TNF-alpha production,compound concentration: 3 uM,65%
CC(C)(O/N=C(\C(=O)N[C@@H]1C(=O)N2C(C(=O)[O-])=C(C[n+]3ccccc3)CS[C@H]12)c1csc(N)n1)C(=O)O,HMGB1-induced TNF-alpha production,compound concentration: 3 uM,86.8%
CC(C)(O/N=C(\C(=O)N[C@@H]1C(=O)N2C(C(=O)[O-])=C(C[n+]3ccccc3)CS[C@H]12)c1csc(N)n1)C(=O)O [Ceftazidime],HMGB1-induced TNF-alpha production,compound concentration: 3 uM,91.8%
Cc1c(Cl)cccc1Nc1ncccc1C(=O)O [Clonixin Lysinate],HMGB1-induced TNF-alpha production,compound concentration: 3 uM,128%
O=c1onc2n1-c1cc(Br)ccc1OC2,HMGB1-induced TNF-alpha production,compound concentration: 3 uM,114%
CN1CCN(C(c2ccccc2)c2ccc(Cl)cc2)CC1 (stereo not given) [Chlorcyclizine hydrochloride],HMGB1-induced TNF-alpha production,compound concentration: 3 uM,95%
CN1CCN(C(c2ccccc2)c2ccc(Cl)cc2)CC1 (stereo not given),HMGB1-induced TNF-alpha production,compound concentration: 3 uM,79.1%
"Nc1ncnc2c1ncn2[C@@H]1O[C@H](COP(=O)(O)CP(=O)(O)OP(=O)(O)O)[C@H](O)C1O (stereo partly drawn) [alpha,beta-Methylene adenosine 5'-triphosphate dilithium]",HMGB1-induced TNF-alpha production,compound concentration: 3 uM,112%
O=C(N/N=C/c1ccc([N+](=O)[O-])o1)c1ccc(O)cc1 [Nifuroxazide],HMGB1-induced TNF-alpha production,compound concentration: 3 uM,69.6%
O=C(N/N=C/c1ccc([N+](=O)[O-])o1)c1ccc(O)cc1,HMGB1-induced TNF-alpha production,compound concentration: 3 uM,62.7%
"O=C1C=CC(=O)c2c1ccc1c2ccc2ccccc21 [Chrysene-1,4-quinone]",HMGB1-induced TNF-alpha production,compound concentration: 3 uM,102%
NC(=O)c1ncn([C@@H]2O[C@H](CO)[C@@H](O)[C@H]2O)c1O,HMGB1-induced TNF-alpha production,compound concentration: 3 uM,72.6%
NC(=O)c1ncn([C@@H]2O[C@H](CO)[C@@H](O)[C@H]2O)c1O [Mizoribine],HMGB1-induced TNF-alpha production,compound concentration: 3 uM,109%
CC(=O)Nc1ccc(S(=O)(=O)Nc2ccc([N+](=O)[O-])cc2)cc1,HMGB1-induced TNF-alpha production,compound concentration: 3 uM,86.5%
CCC(=O)[C@@]1(C)[C@H](C)C[C@H]2[C@@H]3CCC4=CC(=O)C=C[C@]4(C)[C@H]3[C@@H](O)C[C@@]21C [Rimexolone],HMGB1-induced TNF-alpha production,compound concentration: 3 uM,40.4%
Cc1ccc(C(=O)Nc2ccc(S(=O)(=O)O)c3cc(S(=O)(=O)O)cc(S(=O)(=O)O)c23)cc1NC(=O)c1cccc(NC(=O)Nc2cccc(C(=O)Nc3cc(C(=O)Nc4ccc(S(=O)(=O)O)c5cc(S(=O)(=O)O)cc(S(=O)(=O)O)c45)ccc3C)c2)c1 [Suramin],HMGB1-induced TNF-alpha production,compound concentration: 3 uM,93.1%
Cc1ccc(C(=O)Nc2ccc(S(=O)(=O)O)c3cc(S(=O)(=O)O)cc(S(=O)(=O)O)c23)cc1NC(=O)c1cccc(NC(=O)Nc2cccc(C(=O)Nc3cc(C(=O)Nc4ccc(S(=O)(=O)O)c5cc(S(=O)(=O)O)cc(S(=O)(=O)O)c45)ccc3C)c2)c1,HMGB1-induced TNF-alpha production,compound concentration: 3 uM,107 ± 7.7%
Cc1ccc(C(=O)Nc2ccc(S(=O)(=O)O)c3cc(S(=O)(=O)O)cc(S(=O)(=O)O)c23)cc1NC(=O)c1cccc(NC(=O)Nc2cccc(C(=O)Nc3cc(C(=O)Nc4ccc(S(=O)(=O)O)c5cc(S(=O)(=O)O)cc(S(=O)(=O)O)c45)ccc3C)c2)c1 [Suramin sodium salt],HMGB1-induced TNF-alpha production,compound concentration: 3 uM,91.6%
CCc1cc(C(N)=S)ccn1 [Ethionamide],HMGB1-induced TNF-alpha production,compound concentration: 3 uM,65.8%
CCc1cc(C(N)=S)ccn1,HMGB1-induced TNF-alpha production,compound concentration: 3 uM,89.6%
CC(=O)Nc1c(I)c(NC(C)=O)c(I)c(C(=O)O)c1I,HMGB1-induced TNF-alpha production,compound concentration: 3 uM,88%
Nc1ncnc2c1ncn2[C@@H]1O[C@H](COC(=O)CCC(=O)O)[C@@H](O)[C@H]1O [Adenosine 5'-succinate],HMGB1-induced TNF-alpha production,[1],62.3%
"CC(=O)N[C@H]1[C@H]([C@H](O)[C@H](O)CO)OC(C(=O)O)=C[C@@H]1O [N-Acetyl-2,3-dehydro-2-deoxyneuraminic acid]",HMGB1-induced TNF-alpha production,compound concentration: 3 uM,86%
Cn1cc(C2=C(c3ccc(Cl)cc3Cl)C(=O)NC2=O)c2ccccc21,HMGB1-induced TNF-alpha production,compound concentration: 3 uM,112%
CN(N=O)C(=O)N[C@@H](C=O)[C@@H](O)[C@H](O)[C@H](O)CO [Streptozotocin],HMGB1-induced TNF-alpha production,compound concentration: 3 uM,105%
CCCCCCCCCCC(C)(C)C(=O)Nc1c(OC)cc(OC)cc1OC,HMGB1-induced TNF-alpha production,compound concentration: 3 uM,104%
"CN=C(N)NCCC[C@H](N)C(=O)O [L-Ornithine, N5-[imino(methylamino)methyl]-[CAS]]",HMGB1-induced TNF-alpha production,compound concentration: 3 uM,102%
CCn1cc(C(=O)O)c(=O)c2cc(F)c(N3CCN(C)CC3)cc21 [Pefloxacine],HMGB1-induced TNF-alpha production,compound concentration: 3 uM,76.5 ± 11%
CCn1cc(C(=O)O)c(=O)c2cc(F)c(N3CCN(C)CC3)cc21,HMGB1-induced TNF-alpha production,compound concentration: 3 uM,105% and 93.6%
CC[C@]12CCCN3CCc4c(n(c5ccccc45)C(=O)C1)[C@@H]32 [Eburnamonine (-)],HMGB1-induced TNF-alpha production,compound concentration: 3 uM,110%
CC[C@]12CCCN3CCc4c(n(c5ccccc45)C(=O)C1)[C@@H]32,HMGB1-induced TNF-alpha production,compound concentration: 3 uM,76.3%
O=C([O-])CC(O)(CC(=O)[O-])C(=O)[O-].[Fe+3] [Ferric citrate],HMGB1-induced TNF-alpha production,[1],78.6%
CC#CCOC(=O)c1c(C)nc2sc3c(c2c1N)CCC(O)C3 (stereo not given),HMGB1-induced TNF-alpha production,compound concentration: 3 uM,113%
Cc1ccc(S(=O)(=O)NCl)cc1,HMGB1-induced TNF-alpha production,compound concentration: 3 uM,90.4%
O[C@H]1[C@H](O)[C@@H](O)[C@@H]2O[C@@H]2[C@@H]1O (racemic) [Conduritol B epoxide],HMGB1-induced TNF-alpha production,compound concentration: 3 uM,85.2%
C[C@@H]1CN(c2c(F)c(N)c3c(=O)c(C(=O)O)cn(C4CC4)c3c2F)C[C@H](C)N1 [Sparfloxacin],HMGB1-induced TNF-alpha production,compound concentration: 3 uM,77.2 ± 8.1%
C[C@@H]1O[C@@H]1P(=O)(O)O [Phosphomycin disodium],HMGB1-induced TNF-alpha production,compound concentration: 3 uM,103%
C[C@@H]1O[C@@H]1P(=O)(O)O,HMGB1-induced TNF-alpha production,compound concentration: 3 uM,101%
Cn1c(=O)c2[nH]c(-c3ccc(S(=O)(=O)O)cc3)nc2n(C)c1=O [8-(p-Sulfophenyl)theophylline],HMGB1-induced TNF-alpha production,compound concentration: 3 uM,94.2%
CN1CCN(C2=Nc3ccccc3Sc3ccc(Cl)cc32)CC1 [Clothiapine],HMGB1-induced TNF-alpha production,compound concentration: 3 uM,74.6%

# 2 records drawn at random from the list so far, as already listed:
structure (smiles),measurement,setting,value
Nc1ccc(S(=O)(=O)Nc2ccc(Cl)nn2)cc1 [Sulfachloropyridazine],HMGB1-induced TNF-alpha production,compound concentration: 3 uM,93.5%
O=C1c2c(O)cc(O)cc2O[C@H](c2ccc(O)c(O)c2)[C@H]1O (racemic),HMGB1-induced TNF-alpha production,compound concentration: 3 uM,108%
